From paper PMC5931992 come the findings set out here.

Chains of the proteins cited; added tags and fusions are not shown. Residues count along the entry.
UniProt P07589, residues 33-2478: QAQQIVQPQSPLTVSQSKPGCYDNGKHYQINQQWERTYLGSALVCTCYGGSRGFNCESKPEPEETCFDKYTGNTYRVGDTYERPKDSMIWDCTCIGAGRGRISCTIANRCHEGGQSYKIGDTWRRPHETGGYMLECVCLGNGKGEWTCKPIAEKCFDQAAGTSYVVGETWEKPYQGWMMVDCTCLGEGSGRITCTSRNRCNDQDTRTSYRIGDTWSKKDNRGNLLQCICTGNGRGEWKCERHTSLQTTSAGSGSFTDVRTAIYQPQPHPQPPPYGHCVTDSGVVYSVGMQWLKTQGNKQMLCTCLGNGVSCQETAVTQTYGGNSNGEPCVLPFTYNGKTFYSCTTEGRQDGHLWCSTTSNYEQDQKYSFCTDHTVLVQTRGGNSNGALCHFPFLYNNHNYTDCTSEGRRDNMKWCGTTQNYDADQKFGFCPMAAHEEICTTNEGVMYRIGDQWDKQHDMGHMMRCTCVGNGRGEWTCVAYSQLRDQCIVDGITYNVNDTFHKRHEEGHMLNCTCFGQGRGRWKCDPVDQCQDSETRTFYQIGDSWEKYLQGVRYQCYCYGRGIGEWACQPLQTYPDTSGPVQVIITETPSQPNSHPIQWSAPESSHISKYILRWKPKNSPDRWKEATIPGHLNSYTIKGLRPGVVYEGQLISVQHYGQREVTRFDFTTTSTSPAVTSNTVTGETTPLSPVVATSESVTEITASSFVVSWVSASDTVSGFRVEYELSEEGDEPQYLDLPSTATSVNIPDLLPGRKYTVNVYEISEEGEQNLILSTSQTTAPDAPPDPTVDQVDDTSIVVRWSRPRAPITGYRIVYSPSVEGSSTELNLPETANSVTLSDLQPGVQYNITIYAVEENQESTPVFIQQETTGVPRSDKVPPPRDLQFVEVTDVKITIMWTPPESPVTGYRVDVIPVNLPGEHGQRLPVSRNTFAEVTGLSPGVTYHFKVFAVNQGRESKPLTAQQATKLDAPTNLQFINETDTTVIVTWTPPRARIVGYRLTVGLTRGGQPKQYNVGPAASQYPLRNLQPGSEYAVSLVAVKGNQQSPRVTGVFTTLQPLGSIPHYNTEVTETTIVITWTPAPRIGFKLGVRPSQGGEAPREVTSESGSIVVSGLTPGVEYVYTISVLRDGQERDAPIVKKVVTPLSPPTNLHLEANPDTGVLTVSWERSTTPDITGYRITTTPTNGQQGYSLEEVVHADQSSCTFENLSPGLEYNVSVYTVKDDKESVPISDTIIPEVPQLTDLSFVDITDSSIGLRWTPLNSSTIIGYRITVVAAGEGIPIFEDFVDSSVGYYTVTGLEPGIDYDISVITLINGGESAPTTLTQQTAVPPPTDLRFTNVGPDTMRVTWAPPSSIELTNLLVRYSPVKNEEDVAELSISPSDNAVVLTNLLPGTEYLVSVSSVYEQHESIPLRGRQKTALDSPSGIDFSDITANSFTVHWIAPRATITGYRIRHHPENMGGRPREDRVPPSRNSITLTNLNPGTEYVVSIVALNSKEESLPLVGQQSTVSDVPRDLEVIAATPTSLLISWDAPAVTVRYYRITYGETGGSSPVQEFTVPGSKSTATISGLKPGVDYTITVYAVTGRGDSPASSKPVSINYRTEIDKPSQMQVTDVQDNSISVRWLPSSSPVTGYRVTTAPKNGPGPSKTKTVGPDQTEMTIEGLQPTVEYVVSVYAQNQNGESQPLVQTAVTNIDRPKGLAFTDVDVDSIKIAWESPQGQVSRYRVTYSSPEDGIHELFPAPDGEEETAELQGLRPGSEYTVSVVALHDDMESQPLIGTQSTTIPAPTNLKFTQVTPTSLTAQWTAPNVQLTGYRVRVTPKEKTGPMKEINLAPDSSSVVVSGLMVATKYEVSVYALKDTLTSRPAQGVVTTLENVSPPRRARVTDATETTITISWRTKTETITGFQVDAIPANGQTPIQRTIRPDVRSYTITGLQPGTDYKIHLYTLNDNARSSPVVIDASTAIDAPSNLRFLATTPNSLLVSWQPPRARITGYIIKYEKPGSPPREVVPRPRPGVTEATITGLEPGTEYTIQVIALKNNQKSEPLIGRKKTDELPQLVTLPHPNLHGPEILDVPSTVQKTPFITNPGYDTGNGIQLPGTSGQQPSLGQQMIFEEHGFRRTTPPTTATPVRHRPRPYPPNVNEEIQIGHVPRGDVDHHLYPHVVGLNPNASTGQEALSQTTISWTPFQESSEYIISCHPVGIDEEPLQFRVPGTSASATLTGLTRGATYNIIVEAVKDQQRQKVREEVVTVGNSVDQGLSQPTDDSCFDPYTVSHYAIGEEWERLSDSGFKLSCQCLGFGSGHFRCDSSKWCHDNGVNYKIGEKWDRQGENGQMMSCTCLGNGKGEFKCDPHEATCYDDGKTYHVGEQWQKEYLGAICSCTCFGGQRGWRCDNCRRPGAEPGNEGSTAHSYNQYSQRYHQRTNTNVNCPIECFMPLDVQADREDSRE

In assay [1] the target is fibronectin (UniProt P07589). Description: SEC-MALS; fibronectin, 0.45 mg on Superdex 200 Increase; 20 mM Tris-HCl pH 8, 100 mM NaCl; 25 °C; self-association; both purified.
Assay [2] has as its target fibronectin (UniProt P07589). Put plainly: IEX-MALS (anion exchange, AIEX-MALS); fibronectin, 20 mL of 0.05 mg/mL (1 mg) on Mono-Q; 20 mM Tris-HCl pH 8, 50 mM NaCl; 30CV gradient of 15-45% of buffer with 1 M NaCl; 25 °C; self-association; both purified.

No constants are given. Whether binding was seen depends on the method and setting. Some entries that bind do so weakly or less than the wild type.

With “fibronectin (from UniProt P07589 33-2478)”, the binding result in assay [1] and in assay [2] was “binds” each time.
